Test results as given in WO2014084859A1.
Results are given in words; binding and its absence hold for the method and conditions named. Some binding calls cover weakened binding; strength is not graded here. Where a sequence is shown, tags or fusion partners need not be part of it.

Assays:
[1] = molecular target: T1, TMEM16A-GFP fusion protein on HEK293 stable cells (UniProt Q5XXA6); test: flow cytometry on TMEM16A expressing HEK293 cells, APC secondary antibody
T1 sequence (looked up): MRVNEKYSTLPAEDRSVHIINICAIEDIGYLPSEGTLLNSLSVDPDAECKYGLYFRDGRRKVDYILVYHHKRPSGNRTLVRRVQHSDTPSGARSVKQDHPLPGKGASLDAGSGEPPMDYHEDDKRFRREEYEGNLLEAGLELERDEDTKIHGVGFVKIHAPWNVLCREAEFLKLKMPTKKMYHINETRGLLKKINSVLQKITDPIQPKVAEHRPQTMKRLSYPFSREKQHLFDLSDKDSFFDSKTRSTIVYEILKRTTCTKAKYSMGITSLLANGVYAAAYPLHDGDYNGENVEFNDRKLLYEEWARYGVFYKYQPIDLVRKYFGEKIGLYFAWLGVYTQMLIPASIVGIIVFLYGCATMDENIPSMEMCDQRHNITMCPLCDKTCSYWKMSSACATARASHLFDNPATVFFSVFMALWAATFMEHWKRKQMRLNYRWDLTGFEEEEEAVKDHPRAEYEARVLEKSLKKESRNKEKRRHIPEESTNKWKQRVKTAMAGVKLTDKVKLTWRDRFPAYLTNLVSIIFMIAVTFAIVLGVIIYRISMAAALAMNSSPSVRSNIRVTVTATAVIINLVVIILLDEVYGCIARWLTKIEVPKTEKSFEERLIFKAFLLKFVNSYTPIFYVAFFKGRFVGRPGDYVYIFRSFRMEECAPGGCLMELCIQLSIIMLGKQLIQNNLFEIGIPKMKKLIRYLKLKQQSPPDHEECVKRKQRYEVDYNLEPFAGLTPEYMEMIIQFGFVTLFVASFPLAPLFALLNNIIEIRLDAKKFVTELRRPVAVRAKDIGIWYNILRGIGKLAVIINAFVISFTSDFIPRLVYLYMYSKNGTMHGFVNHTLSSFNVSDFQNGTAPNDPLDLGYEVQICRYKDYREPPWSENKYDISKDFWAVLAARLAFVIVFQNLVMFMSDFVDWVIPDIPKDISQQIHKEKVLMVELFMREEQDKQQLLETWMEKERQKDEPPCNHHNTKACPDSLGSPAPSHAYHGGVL

[2] = molecular target: T1, TMEM16A-GFP fusion protein on HEK293 stable cells; test: flow cytometry on HEK293-TMEM16A cells
[3] = molecular target: T1, TMEM16A-GFP fusion protein on HEK293 stable cells; test: flow cytometry on HEK293 stable cell lines

binding [1]: binds
binding [2]: binds
binding [3]: binds
B1: 12E11 (antibody, V domains shown)
VH: QVQLKESGPGLVQPSQTLTLTCTVSGFSLSNYDMHWVRQSPGKGLDWMGVIWGNGKTQYNSGLTSRLSISRDTSKSQVFLKMNSLQTEDTAIYFCTRSGYYYDGSYYSLFDYWGQGVMVTVSS
VL: DVVLTQTPPTLSATIGQSVSISCRSSQSLLHSNGNTYLNWLLQRPGQPPQLLIYLVSRLESGVPNRFSGSGSGTDFTLKISGVEAEDLGVYYCVQSTHAPAFGGGTKLELK
